Measurements taken from PMC11563670.
No constants are given. Whether binding was seen depends on the method and setting. In cells and extracts the contact can be indirect. Some binding calls cover weakened binding; strength is not graded here.

The chains behind the UniProt entries cited, without tags or fusion partners. Where a name states a change or a piece, a line headed by the entry shows the natural chain unless it says otherwise. Residues count along the entry.
UniProt Q9NZQ7, residues 19-290: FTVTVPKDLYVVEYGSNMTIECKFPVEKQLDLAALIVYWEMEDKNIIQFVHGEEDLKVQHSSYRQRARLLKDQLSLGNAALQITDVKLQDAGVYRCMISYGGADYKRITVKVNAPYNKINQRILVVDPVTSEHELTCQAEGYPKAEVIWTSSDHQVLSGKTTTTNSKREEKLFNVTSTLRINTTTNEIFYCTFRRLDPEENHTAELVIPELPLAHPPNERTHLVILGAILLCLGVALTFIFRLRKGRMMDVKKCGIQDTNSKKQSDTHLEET
UniProt O75367: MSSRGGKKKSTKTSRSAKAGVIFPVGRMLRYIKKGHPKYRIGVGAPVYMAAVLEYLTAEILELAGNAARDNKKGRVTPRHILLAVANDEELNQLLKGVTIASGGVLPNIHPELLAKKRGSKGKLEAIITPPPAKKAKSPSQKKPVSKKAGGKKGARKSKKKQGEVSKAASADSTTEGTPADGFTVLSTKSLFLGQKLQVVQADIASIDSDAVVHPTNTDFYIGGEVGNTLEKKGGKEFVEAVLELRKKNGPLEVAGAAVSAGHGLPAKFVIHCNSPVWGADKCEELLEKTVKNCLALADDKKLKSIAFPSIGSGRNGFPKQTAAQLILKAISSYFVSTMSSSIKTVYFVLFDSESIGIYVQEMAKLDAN

Target: programmed death ligand 1 (PD-L1) (human (endogenous in Hep3B)) (UniProt Q9NZQ7)
Assay: co-IP; endogenous proteins of Hep3B cells with or without LA; total cell lysate and nuclear extract; 2 ug antibody in cell lysate overnight at 4°C, protein G-Sepharose beads 3 hours at 4°C, immunoblotting

“histone variant macroH2A1 phosphorylated at S146 (mH2A1-p146) (from UniProt O75367 1-369)” was tested, and the binding was “binds”.
